“And” between values parts separate entries of the source, which are not always exact repeats. Equal values may be shown once. The whole screen tested about 390,000 compounds, of which about 820 (0.21%) were called active. The inconclusive results got no clear call from the source; some entries with a clear call stand among them for comparison. Calls follow the shape of the dose curve; as a rule, active = well fitted inhibition curve with a large enough effect; inconclusive = small, poorly fitted or top-dose-only effect, or another doubt; inactive = no such curve, though single readings can be large or run the other way. Potencies beside an inconclusive call are fits to weak or partial responses and may not hold up. More than one record can exist for a structure, and the calls need not agree.
The compounds below were run against Histone acetyltransferase KAT2A (Homo sapiens) (UniProt Q92830) (assay: qHTS Assay for Inhibitors of GCN5L2). Settings: GCN5L2 HAT assay, ThioGlo1 CoA-SH fluorescence; activity change, negative = inhibition: at 58.9 µM (top of the series) unless noted.
Method in brief: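 Compounds, pin-transferred from DMSO stocks, meet 20nM GCN5L2 for 15 min before the reaction begins with H3(1-25) peptide (75uM) and acetyl-CoA (70uM). Thiol-reactive ThioGlo1 reports CoA release over 20 min at room temperature.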
% is scaled to controls: 0 for no effect and ±100 for the full control effect; potency is read from the fitted curve at half-maximal effect.

The chains behind the UniProt entries cited, without tags or fusion partners.
UniProt Q92830, whole entry, looked up: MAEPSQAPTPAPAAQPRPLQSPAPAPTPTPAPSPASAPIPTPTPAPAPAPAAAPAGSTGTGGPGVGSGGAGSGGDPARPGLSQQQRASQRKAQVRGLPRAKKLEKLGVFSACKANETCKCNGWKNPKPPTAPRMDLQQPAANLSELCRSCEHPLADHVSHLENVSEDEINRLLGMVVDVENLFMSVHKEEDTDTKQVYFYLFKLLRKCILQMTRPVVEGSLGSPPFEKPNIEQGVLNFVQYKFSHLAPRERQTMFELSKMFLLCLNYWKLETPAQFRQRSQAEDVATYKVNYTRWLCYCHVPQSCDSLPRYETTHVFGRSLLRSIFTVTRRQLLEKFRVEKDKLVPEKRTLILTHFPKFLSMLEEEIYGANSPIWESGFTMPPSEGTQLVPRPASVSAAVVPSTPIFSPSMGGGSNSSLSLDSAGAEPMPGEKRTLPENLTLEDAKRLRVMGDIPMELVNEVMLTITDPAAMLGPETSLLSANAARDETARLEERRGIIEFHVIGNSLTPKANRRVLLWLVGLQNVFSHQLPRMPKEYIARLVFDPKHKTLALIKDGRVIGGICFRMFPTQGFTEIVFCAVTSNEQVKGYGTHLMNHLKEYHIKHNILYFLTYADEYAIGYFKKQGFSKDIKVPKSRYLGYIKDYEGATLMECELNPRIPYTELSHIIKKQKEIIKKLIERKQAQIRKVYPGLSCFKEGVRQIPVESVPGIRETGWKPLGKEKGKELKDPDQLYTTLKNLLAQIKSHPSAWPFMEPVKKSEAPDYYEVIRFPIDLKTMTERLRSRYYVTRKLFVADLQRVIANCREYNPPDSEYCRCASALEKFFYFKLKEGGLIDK

Row | SMILES | activity change, negative = inhibition | Potency
1 | Cc1noc(C)c1-c1nccc(N2CCN(C)CC2)n1 | inactive: -7.63% | –
2 | Cc1cc(C)cc(NC(=O)[C@H](NC(=O)[C@@H]2Cc3ccccc3CN2)c2ccccc2)c1 | inactive: -3.12% | –
3 | Cc1cc2nc(-c3ccc[nH]c3=O)[nH]c2cc1C | – | active: 28.2 µM
4 | COc1ccccc1CCNC(=O)C(=O)NCC(c1cccs1)S(=O)(=O)c1ccc(C)cc1 (centres undefined) | inactive: 7.92% | –
5 | O=c1oc2ccc(C#CC3(O)CCCCC3)cc2cc1-n1cc(-c2ccsc2)nn1 | – | inconclusive: 31.6 µM [inhibitor, single point]
6 | O=C(c1ccccc1)N1CCSC1=S | – | inconclusive: 39.8 µM [inhibitor, single point]
7 | Cc1ccc(-c2cc(-c3ccc4c(c3)OCO4)c(C#N)c(N)n2)o1 | – | inconclusive: 31.6 µM [inhibitor, single point]
8 | CC(=O)Nc1ccc(S(=O)(=O)N(C)CC(=O)OCC(=O)N2CCN(C(=O)c3ccco3)CC2)cc1 | – | inconclusive: 39.8 µM [inhibitor, single point]
9 | Cc1ccc(NC(=O)c2cn(-c3cccc(C)n3)cn2)cc1 | – | inconclusive: 0.447 µM [inhibitor, single point]
10 | C#CCOCCOCCOCCNc1nc(N2CCN(C(=O)[C@H](CCCN=C(N)N)n3cc(C(N)[C@@H](C)CC)nn3)CC2)nc(N2CCN(C(=O)[C@H](CCC(=O)O)n3cc([C@@H](N)CC(N)=O)nn3)CC2)n1 (some centres undefined) | inactive: 0.764% | –
11 | Cc1ccc(S(=O)(=O)N2[C@@H](c3cccc(Cl)c3)C(C(=O)O)=CC[C@H]2c2cccc(Cl)c2)cc1 | inactive: -0.215% | –
12 | COc1ccc(Cl)cc1-n1c(N)c(C(N)=O)sc1=S | inactive: -2.35% | –
14 | Cc1cccc(N2CCN(C(=O)c3ccc4c(c3)NC(=O)C(CSCc3ccc(F)cc3)N4)CC2C)c1 (centres undefined) | – | inconclusive: 39.8 µM [inhibitor, single point]
15 | COc1cc(NC(=O)CSc2nc3ccccc3nc2Cc2ccccc2OC)cc(OC)c1 | inactive: -2.04% | –
16 | N#Cc1cc2c([nH]c1=S)CCCC2 | – | inconclusive: 25.1 µM [inhibitor, single point]
17 | Cc1noc(C(=O)N2CCN(c3ccccc3)CC2)c1Cl | – | inconclusive: 1.12 µM [inhibitor, full curve]
18 | Cc1ccc(S(=O)(=O)NC(=O)c2ccc(-c3ccc(-c4ccccc4)cc3)o2)c(C)c1 | – | inconclusive: 35.5 µM [inhibitor, single point]
19 | COc1ccccc1/C=C/C(=O)Nc1cccnc1 | – | inconclusive: 7.08 µM [inhibitor, single point]
20 | CC1CCC/C(=N\NS(=O)(=O)c2ccccc2)C1 (centres undefined) | – | inconclusive: 39.8 µM [inhibitor, single point]
21 | COCCn1nnnc1SCC(=O)c1ccc(F)cc1 | inactive: -6.34% | –
22 | Cc1ccc(NC(=O)Cn2cnc3nc4c(cc3c2=O)CCCC4)cc1Cl | – | inconclusive: 0.708 µM [inhibitor, single point]
23 | CCCOC(=O)/C(=C\C=C\c1ccco1)NC(=O)c1ccccc1 | – | inconclusive: 35.5 µM [inhibitor, single point]

Laid out differently: 15 of the compounds above
Row	SMILES	activity change, negative = inhibition	Potency
8	CC(=O)Nc1ccc(S(=O)(=O)N(C)CC(=O)OCC(=O)N2CCN(C(=O)c3ccco3)CC2)cc1	–	inconclusive: 39.8 µM [inhibitor, single point]
9	Cc1ccc(NC(=O)c2cn(-c3cccc(C)n3)cn2)cc1	–	inconclusive: 0.447 µM [inhibitor, single point]
10	C#CCOCCOCCOCCNc1nc(N2CCN(C(=O)[C@H](CCCN=C(N)N)n3cc(C(N)[C@@H](C)CC)nn3)CC2)nc(N2CCN(C(=O)[C@H](CCC(=O)O)n3cc([C@@H](N)CC(N)=O)nn3)CC2)n1 (some centres undefined)	inactive: 0.764%	–
11	Cc1ccc(S(=O)(=O)N2[C@@H](c3cccc(Cl)c3)C(C(=O)O)=CC[C@H]2c2cccc(Cl)c2)cc1	inactive: -0.215%	–
12	COc1ccc(Cl)cc1-n1c(N)c(C(N)=O)sc1=S	inactive: -2.35%	–
14	Cc1cccc(N2CCN(C(=O)c3ccc4c(c3)NC(=O)C(CSCc3ccc(F)cc3)N4)CC2C)c1 (centres undefined)	–	inconclusive: 39.8 µM [inhibitor, single point]
15	COc1cc(NC(=O)CSc2nc3ccccc3nc2Cc2ccccc2OC)cc(OC)c1	inactive: -2.04%	–
16	N#Cc1cc2c([nH]c1=S)CCCC2	–	inconclusive: 25.1 µM [inhibitor, single point]
17	Cc1noc(C(=O)N2CCN(c3ccccc3)CC2)c1Cl	–	inconclusive: 1.12 µM [inhibitor, full curve]
18	Cc1ccc(S(=O)(=O)NC(=O)c2ccc(-c3ccc(-c4ccccc4)cc3)o2)c(C)c1	–	inconclusive: 35.5 µM [inhibitor, single point]
19	COc1ccccc1/C=C/C(=O)Nc1cccnc1	–	inconclusive: 7.08 µM [inhibitor, single point]
20	CC1CCC/C(=N\NS(=O)(=O)c2ccccc2)C1 (centres undefined)	–	inconclusive: 39.8 µM [inhibitor, single point]
21	COCCn1nnnc1SCC(=O)c1ccc(F)cc1	inactive: -6.34%	–
22	Cc1ccc(NC(=O)Cn2cnc3nc4c(cc3c2=O)CCCC4)cc1Cl	–	inconclusive: 0.708 µM [inhibitor, single point]
23	CCCOC(=O)/C(=C\C=C\c1ccco1)NC(=O)c1ccccc1	–	inconclusive: 35.5 µM [inhibitor, single point]

Remaining list, next part

Row | SMILES | activity change, negative = inhibition | Potency
24 | Cc1ccc(C(=O)Nc2ccc3c(c2)C(=O)N(C)C3=O)c(C)c1 | – | inconclusive: 0.316 µM [inhibitor, full curve, poor fit]
25 | Cc1ccc(OCC(=O)N/N=C/C=C/c2ccco2)cc1C | inactive: -6.12% | –
26 | Cc1cc2nc(C)n(CCCNC(=O)Nc3cccc4ccccc34)c2cc1C | inconclusive: -91.3% [inhibitor] | –
27 | Cc1cc(C(=O)N/N=C\c2cc(C(C)(C)C)ccc2O)n[nH]1 | – | inconclusive: 0.708 µM [inhibitor, full curve, poor fit]
28 | Cc1c(CCC(=O)NC2CC2)c(=O)oc2c(C)c(O)ccc12 | – | inconclusive: 35.5 µM [inhibitor, single point]
29 | CCOc1ccc(NC(=O)c2c(NCc3sccc3C)sc3c2CCCCC3)cc1 | – | inconclusive: 35.5 µM [inhibitor, single point]
30 | O=C(O)c1ccc(-n2cccc2/C=C2/NC(=O)N(c3ccccc3)C2=O)cc1 | – | inconclusive: 39.8 µM [inhibitor, single point]
31 | Cc1ccc2c(C(=O)CN3CCSCC3)c(C)[nH]c2c1 | inactive: 4.31% | –
32 | O=c1c2cc(N3CCOCC3)ccc2[nH]c(=S)n1Cc1ccco1 | – | inconclusive: 39.8 µM [inhibitor, single point]
33 | CCOc1ccc(S(=O)(=O)Nc2cc(Sc3ncn[nH]3)c3oc(=O)sc3c2)cc1 | – | inconclusive: 35.5 µM [inhibitor, single point]
34 | S=c1[nH]nc(-c2cc(-c3ccco3)[nH]n2)n1-c1cccc2ccccc12 | – | inconclusive: 25.1 µM [inhibitor, single point]
35 | CCOC(=O)c1sc(=S)n(C)c1NC(=O)c1cccc(Br)c1 | inactive: -15.2% | –
36 | N#Cc1ccc(OCC(O)CN2CCC(C(O)(c3ccccc3)c3ccccc3)CC2)cc1 (centres undefined) | inactive: -2.93% | –
37 | CCOC(=O)c1c(-c2ccco2)csc1NC(=O)COC(=O)c1cnc(C)cn1 | – | inconclusive: 39.8 µM [inhibitor, single point]
38 | COCCn1c(SCc2ccc(C(=O)OC)o2)nc2ccccc2c1=O | inactive: -11.1% | –
39 | CCCOC(=O)CSC1=C(C#N)C(c2ccc3c(c2)OCO3)CC(=O)N1 (centres undefined) | inactive: -3.69% | –
40 | COc1cccc(/C=C(\C#N)c2nc3ccc(C)cc3[nH]2)c1OCC(=O)O | – | inconclusive: 5.01 µM [inhibitor, single point]
41 | COc1c2ccoc2nc2c(OC)c(OC[C@@H](O)C(C)(C)O)ccc12 | – | inconclusive: 2.82 µM [inhibitor, partial curve, poor fit]
42 | Cc1cc(Cc2ccc([N+](=O)[O-])cc2)c(C)cn1 | – | inconclusive: 3.55 µM [inhibitor, single point]
43 | COC(=O)c1ccc(=O)c2nc3/c(=C/O)c(O)cc(=O)c3[nH]c12 | – | inconclusive: 7.94 µM [inhibitor, full curve, poor fit]
44 | CC(=O)NCCOc1nc(N2CCCCC2)nc(N2CCCCC2)n1 | – | inconclusive: 28.2 µM [inhibitor, single point]
45 | COc1cc(OC)cc(C(=O)Nc2ccc(C(=O)NCC3CCCO3)cc2)c1 (centres undefined) | – | inconclusive: 0.562 µM [inhibitor, single point]
46 | Cc1ccc(C(=O)NCc2ccco2)cc1S(=O)(=O)N1CCOCC1 | – | inconclusive: 0.794 µM [inhibitor, full curve, poor fit]

Row | SMILES | activity change, negative = inhibition | Potency
47 | Cc1ccc(S(=O)(=O)N2CCC(C(=O)OCC(=O)N(CC(C)C)C3CCS(=O)(=O)C3)CC2)cc1C (centres undefined) | – | inconclusive: 2 µM [inhibitor, full curve, poor fit]
48 | Cc1ccc2occ(/C=N/NC(=O)[C@@H](N)Cc3ccccc3)c(=O)c2c1 | inactive: -6.44% | –
49 | CC/C=C\C/C=C\C/C=C\CCCCCCCC(=O)O | – | inactive and active: 10 µM
50 | Clc1cccc(CSc2nnc(-c3cccnc3)n2Cc2ccco2)c1 | inactive: 1.83% | –
51 | CCCNC1=C(C)C(=O)CC1 | – | inconclusive: 1.26 µM [inhibitor, full curve, poor fit]
52 | O=[N+]([O-])c1ccc(S(=O)(=O)Nc2nnc(C(F)(F)F)s2)cc1 | – | inconclusive: 0.631 µM [inhibitor, single point]
53 | COc1ccc(C2=C(N3CCN(c4cccc(C)c4C)CC3)c3ccccc3C2=O)cc1 | inactive: -4.68% | –
54 | Nc1nn(-c2ccccc2)nc1C(=O)OCc1ccc(Cl)cc1 | inactive: -7.39% | –
55 | O=C(CN1CCN(CCC(=O)Nc2ccccc2F)CC1)Nc1ccc(Cl)cc1 | inactive: 8.32% | –
56 | CCOC(=O)c1c(-c2ccc(Cl)cc2)csc1NC(=O)CNCc1ccco1 | inactive: -2.54% | –
57 | Cc1ccccc1OCC(O)CNC1CCC(NCC(O)COc2ccccc2C)CC1 (centres undefined) | – | inconclusive: 44.7 µM [inhibitor, partial curve, poor fit]
58 | CC(C)(C)c1ccc(C(=O)Nc2ccc(S(N)(=O)=O)cc2)cc1 | – | inconclusive: 6.31 µM [inhibitor, single point]
59 | C=CCOC(=O)c1cc(-c2ccc(/C=C3\C(=O)NC(=O)C(C#N)=C3C)o2)ccc1Cl | – | active: 25.1 µM
60 | COc1ccccc1-c1ccc(/C=C2/C=C(C)OC2=O)o1 | – | inconclusive: 20 µM [inhibitor, partial curve]
61 | COc1cc2c(cc1/C=C/C(=O)O)OC(C)C2 (centres undefined) | – | inconclusive: 35.5 µM [inhibitor, single point]
62 | O=C(Nc1cccc(C(F)(F)F)c1)c1ccc2c(c1)nnn2C1CCCC1 | inactive: 1.71% | –
63 | O=C(/C=C/c1ccc2c(c1)OCCCO2)c1ccc2ccccc2c1O | – | inconclusive: 8.91 µM [inhibitor, single point]
64 | CC1=NOC(=O)/C1=C\c1ccc(-c2ccc(Br)cc2C(=O)O)o1 | – | inconclusive: 0.141 µM [inhibitor, full curve, poor fit]
65 | CCc1ccc(/C=C/c2c[nH]c3ccccc23)[n+](CC)c1 | inactive: -9.56% | –
66 | COCCn1nnnc1C(c1ccc(O)c(OC)c1)N1CCc2ccccc2C1 (centres undefined) | – | inconclusive: 39.8 µM [inhibitor, single point]
67 | CC(C)CC(=O)N(c1ccc(F)cc1)C1C=CS(=O)(=O)C1 (centres undefined) | – | inconclusive: 0.501 µM [inhibitor, partial curve, poor fit]
68 | O=[N+]([O-])c1cc(Cl)cc(/C=N/NC(=S)Nc2ccc(S(=O)(=O)N3CCOCC3)cc2)c1O | – | inconclusive: 39.8 µM [inhibitor, single point]
69 | COc1cc(Cl)c(C)cc1Nc1nc2ccccc2c2nnc(C)n12 | inactive: -7.91% | –

From PubChem BioAssay AID504327 (National Center for Advancing Translational Sciences (NCATS), 2011)
